Source: the supplement of paper PMC10849652
Some of the results follow. Residues, ends and D or L forms follow the SMILES beside them. *: point of attachment. Cbz = O=C(OCc1ccccc1)*

Chains of the proteins cited; added tags and fusions are not shown. Lines headed by an entry give the natural chain unless they say otherwise; changes in a name come on top.
UniProt Q96FW1, whole entry, looked up: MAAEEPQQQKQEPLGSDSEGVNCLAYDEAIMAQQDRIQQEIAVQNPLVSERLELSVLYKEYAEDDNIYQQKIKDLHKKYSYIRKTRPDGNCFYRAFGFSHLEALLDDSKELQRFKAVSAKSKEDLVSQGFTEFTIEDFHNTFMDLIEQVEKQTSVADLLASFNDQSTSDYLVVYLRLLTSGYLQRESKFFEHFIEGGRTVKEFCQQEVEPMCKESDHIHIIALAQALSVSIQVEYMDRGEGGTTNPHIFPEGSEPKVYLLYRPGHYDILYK
UniProt Q9UKX7: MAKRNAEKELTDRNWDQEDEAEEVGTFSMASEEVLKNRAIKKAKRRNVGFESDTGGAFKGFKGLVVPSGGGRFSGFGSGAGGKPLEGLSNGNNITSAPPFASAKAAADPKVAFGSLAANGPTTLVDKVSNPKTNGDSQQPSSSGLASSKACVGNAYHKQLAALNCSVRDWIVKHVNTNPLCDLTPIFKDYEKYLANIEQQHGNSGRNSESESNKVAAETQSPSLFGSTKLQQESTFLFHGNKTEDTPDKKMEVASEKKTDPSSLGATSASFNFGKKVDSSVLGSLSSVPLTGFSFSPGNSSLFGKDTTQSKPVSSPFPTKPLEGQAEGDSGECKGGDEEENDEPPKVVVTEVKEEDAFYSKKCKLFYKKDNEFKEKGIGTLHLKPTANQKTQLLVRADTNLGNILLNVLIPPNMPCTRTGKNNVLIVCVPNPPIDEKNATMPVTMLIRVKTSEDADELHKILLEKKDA
UniProt Q9BXS6: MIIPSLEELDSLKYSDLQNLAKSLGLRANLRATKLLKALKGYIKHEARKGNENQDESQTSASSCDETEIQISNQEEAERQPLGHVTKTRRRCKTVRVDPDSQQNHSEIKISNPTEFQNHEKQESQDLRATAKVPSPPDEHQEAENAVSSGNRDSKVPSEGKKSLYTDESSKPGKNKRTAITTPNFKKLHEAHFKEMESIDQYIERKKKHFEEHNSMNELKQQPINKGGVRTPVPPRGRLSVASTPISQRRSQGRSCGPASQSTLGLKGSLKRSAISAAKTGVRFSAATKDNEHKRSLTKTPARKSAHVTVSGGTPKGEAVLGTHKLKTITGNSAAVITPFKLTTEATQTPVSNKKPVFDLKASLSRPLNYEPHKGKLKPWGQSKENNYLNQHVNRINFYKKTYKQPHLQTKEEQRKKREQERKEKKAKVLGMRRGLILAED
UniProt Q7Z3B4: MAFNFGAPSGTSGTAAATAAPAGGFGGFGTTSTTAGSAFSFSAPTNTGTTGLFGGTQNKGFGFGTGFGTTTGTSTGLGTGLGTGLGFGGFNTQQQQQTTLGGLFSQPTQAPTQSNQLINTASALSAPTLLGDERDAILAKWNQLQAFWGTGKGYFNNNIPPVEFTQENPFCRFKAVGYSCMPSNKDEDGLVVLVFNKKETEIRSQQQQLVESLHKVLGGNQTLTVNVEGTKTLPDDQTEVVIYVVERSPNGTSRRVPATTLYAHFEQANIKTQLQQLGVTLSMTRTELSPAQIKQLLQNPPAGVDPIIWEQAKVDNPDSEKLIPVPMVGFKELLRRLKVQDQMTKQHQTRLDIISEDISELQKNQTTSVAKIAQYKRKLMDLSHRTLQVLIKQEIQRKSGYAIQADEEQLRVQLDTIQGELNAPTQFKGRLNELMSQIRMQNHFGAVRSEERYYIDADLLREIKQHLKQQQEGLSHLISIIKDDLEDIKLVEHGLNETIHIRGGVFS
UniProt Q96CB9: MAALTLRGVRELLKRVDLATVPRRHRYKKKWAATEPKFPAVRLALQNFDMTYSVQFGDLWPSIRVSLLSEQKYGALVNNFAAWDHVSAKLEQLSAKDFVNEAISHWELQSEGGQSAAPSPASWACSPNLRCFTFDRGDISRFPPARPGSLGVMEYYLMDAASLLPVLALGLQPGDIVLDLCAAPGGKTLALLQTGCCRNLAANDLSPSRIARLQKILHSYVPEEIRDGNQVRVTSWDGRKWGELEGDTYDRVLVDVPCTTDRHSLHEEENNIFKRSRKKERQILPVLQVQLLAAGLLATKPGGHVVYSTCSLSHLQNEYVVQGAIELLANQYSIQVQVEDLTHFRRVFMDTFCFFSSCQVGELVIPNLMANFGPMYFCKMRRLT
UniProt Q9Y5A7: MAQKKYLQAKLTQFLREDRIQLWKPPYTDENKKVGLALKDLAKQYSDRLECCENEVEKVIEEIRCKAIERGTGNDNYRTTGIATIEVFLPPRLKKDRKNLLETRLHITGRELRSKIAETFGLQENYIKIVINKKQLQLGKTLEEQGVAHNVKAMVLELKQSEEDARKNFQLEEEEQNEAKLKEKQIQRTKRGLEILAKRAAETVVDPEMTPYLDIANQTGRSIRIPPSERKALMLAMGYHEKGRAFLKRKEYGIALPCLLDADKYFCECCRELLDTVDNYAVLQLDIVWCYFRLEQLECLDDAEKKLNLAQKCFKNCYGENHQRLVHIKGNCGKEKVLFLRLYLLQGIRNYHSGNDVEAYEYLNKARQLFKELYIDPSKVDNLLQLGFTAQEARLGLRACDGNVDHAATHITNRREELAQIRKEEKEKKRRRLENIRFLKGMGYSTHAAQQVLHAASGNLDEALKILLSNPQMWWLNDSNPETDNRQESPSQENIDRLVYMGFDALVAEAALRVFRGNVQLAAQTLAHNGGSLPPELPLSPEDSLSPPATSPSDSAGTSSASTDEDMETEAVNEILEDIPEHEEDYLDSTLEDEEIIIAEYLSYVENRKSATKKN
UniProt O43929: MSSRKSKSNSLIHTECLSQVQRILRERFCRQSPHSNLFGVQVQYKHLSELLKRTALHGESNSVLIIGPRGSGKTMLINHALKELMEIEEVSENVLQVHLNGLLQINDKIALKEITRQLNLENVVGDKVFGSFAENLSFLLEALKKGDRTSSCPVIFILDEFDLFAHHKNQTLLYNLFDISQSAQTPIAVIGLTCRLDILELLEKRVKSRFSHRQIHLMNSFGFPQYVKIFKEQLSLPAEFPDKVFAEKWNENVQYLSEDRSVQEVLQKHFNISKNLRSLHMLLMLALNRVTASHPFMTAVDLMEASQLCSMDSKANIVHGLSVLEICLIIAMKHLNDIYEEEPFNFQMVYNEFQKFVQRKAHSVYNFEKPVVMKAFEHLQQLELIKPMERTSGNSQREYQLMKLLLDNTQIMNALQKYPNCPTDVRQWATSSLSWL
UniProt O14841: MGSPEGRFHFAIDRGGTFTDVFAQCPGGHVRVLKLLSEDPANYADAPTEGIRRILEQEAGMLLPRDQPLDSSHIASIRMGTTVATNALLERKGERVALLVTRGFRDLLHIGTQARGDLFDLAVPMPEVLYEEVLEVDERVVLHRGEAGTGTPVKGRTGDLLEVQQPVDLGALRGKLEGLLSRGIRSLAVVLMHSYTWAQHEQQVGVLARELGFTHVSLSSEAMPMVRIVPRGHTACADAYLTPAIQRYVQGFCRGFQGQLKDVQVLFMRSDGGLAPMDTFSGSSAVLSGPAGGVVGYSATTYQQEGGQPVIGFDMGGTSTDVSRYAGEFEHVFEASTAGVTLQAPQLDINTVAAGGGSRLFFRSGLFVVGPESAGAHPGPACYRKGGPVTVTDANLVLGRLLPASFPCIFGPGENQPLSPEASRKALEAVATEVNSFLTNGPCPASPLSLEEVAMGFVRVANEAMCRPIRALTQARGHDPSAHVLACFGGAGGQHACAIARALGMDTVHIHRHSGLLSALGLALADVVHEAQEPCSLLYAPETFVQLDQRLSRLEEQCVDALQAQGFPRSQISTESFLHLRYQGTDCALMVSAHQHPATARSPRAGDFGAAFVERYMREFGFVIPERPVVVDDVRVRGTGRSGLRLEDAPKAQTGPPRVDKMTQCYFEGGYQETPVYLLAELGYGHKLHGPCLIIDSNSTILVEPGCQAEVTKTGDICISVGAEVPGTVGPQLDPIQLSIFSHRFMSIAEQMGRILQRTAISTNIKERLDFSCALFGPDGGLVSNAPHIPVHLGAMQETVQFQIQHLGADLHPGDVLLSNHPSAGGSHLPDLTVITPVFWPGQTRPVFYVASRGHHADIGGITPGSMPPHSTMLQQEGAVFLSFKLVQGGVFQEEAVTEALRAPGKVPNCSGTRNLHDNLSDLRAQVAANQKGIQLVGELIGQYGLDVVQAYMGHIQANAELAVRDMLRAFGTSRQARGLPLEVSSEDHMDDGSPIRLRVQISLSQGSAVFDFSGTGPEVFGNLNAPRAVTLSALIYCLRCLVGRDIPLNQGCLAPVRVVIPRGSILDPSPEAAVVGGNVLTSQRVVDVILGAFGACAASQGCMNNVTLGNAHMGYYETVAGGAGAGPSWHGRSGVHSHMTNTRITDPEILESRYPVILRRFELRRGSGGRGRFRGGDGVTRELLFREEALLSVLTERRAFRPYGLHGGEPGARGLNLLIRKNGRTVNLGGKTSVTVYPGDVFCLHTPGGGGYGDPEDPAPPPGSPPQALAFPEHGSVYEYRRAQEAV
UniProt Q9NPF4: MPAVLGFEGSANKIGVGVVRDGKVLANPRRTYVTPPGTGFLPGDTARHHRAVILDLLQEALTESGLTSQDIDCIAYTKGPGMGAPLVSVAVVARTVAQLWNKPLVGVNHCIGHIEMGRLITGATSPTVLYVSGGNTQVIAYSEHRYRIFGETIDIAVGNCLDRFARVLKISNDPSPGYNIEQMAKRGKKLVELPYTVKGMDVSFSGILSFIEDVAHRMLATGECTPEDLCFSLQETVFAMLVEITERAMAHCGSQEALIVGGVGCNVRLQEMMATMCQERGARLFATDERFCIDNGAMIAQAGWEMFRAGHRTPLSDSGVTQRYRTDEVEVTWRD
UniProt Q96G74: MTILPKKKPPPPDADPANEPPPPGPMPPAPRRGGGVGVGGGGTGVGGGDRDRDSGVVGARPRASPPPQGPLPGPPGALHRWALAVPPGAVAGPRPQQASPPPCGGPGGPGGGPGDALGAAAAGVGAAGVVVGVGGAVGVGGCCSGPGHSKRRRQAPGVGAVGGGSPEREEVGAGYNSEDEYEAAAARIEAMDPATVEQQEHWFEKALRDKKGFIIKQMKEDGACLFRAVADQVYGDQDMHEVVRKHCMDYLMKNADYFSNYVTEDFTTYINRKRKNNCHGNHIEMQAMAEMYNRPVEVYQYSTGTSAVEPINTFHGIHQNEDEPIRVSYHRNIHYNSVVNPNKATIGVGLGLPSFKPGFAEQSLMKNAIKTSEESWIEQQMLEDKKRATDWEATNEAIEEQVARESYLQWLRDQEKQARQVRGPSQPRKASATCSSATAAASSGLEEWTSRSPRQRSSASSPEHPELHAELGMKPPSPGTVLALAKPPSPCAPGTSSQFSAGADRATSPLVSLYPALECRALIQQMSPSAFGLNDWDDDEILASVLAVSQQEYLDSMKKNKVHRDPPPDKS
UniProt O43482, whole entry, looked up: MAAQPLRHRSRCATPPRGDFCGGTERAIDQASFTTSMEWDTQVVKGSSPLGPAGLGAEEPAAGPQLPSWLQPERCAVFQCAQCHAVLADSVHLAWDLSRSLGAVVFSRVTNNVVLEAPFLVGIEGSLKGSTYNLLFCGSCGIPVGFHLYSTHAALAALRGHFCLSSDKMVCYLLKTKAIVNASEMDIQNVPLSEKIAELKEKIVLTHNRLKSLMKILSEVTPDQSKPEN
UniProt P20774: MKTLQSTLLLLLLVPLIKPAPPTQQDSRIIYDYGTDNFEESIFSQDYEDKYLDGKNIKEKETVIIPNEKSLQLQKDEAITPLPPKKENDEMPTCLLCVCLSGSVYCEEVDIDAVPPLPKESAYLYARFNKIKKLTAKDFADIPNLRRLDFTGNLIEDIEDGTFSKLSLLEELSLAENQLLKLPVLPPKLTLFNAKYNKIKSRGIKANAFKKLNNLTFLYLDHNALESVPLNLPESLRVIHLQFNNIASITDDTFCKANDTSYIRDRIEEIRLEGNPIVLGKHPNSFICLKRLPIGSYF
UniProt Q9BSD7: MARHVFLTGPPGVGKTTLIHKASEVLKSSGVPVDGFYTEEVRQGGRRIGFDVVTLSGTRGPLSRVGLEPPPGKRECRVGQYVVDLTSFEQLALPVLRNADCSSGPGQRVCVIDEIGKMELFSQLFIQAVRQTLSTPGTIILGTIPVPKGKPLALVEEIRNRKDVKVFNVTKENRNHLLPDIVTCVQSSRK

How the values were obtained:
Assay in all cases: log2 fold change, soluble protein after heating vs DMSO (PISA); higher = thermal stabilisation; K562 cells, 10 uM, 30 min; active = over 0.2 and 3.5 SD of the protein, either way, in both replicates (recomputed)
IRAK-1-4 Inhibitor I = compound: C1COCCN1CCN2C3=CC=CC=C3N=C2NC(=O)C4=CC(=CC=C4)[N+](=O)[O-] [IRAK-1-4 Inhibitor I]
In short: (§1)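 K562 cells at 2×10^6 cells/mL were given 10 μM compound for 30 min. Aliquots then went through 3 min of heating across 48°C-58°C, were pooled, and were extracted in PBS with 0.5% NP-40 at 4°C, and the supernatant after 21,000xg for 90 min was quantified by TMTpro 16plex LC-MS/MS with channel sums equalised. Thermal stability relative to control samples, from duplicates, is given as log2 fold change.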

ibrutinib = compound: C=CC(=O)N1CCC[C@@H](n2nc(-c3ccc(Oc4ccccc4)cc3)c3c(N)ncnc32)C1 [ibrutinib]
In short: as §1

[1] = compound: CC(=O)c1cnc2ccc(-c3cc(Cl)c(O)c(Cl)c3)nc2c1N[C@H]1CC[C@H](CN(C)C)CC1
In short: as §1

ralimetinib = compound: CC(C)(C)Cn1c(N)nc2ccc(-c3[nH]c(C(C)(C)C)nc3-c3ccc(F)cc3)nc21 [ralimetinib]
In short: as §1

[2] = compound: CC(C)(O)CC(=O)NCCn1ccc2ncnc(Nc3ccc(Oc4cccc(C(F)(F)F)c4)c(Cl)c3)c21
In short: as §1

[3] = compound: CC(C)C1=C2N=C(C=C(N2N=C1)NCC3=CC=CC=C3)NCCCCCCN
In short: as §1

[4] = compound: CC(C)C[C@@H](C=O)NC(=O)[C@H](CC(C)C)NC(=O)[C@H](CC(C)C)NC(=O)OCc1ccccc1
In short: as §1

pinometostat = compound: CC(C)N(C[C@H]1O[C@@H](n2cnc3c(N)ncnc32)[C@H](O)[C@@H]1O)[C@H]1C[C@@H](CCc2nc3cc(C(C)(C)C)ccc3[nH]2)C1 [pinometostat]
In short: as §1

[5] = compound: CC1=C(C(CC(=O)N1)C2=CC=C(C=C2)C(F)(F)F)C(=O)NC3=C(C=C4C(=C3)C=NN4)F
In short: as §1

[6] = compound: CC1=C(C2=C(C=C1)C(=O)C3=CC=CC=C3N2CCCN)C
In short: as §1

[7] = compound: CC1=C(C=C(C=C1)NC(=O)C2=CC(=CC=C2)C(C)(C)C#N)NC3=CC4=C(C=C3)N=CN(C4=O)C
In short: as §1

[8] = compound: CC1=C(C=C(C=C1)NC(=O)C2=CC(=CC=C2)N(C)C)NC(=O)C3=CC=C(C=C3)O
In short: as §1

[9] = compound: CC1=CC=C(C=C1)SC2=C3C=C(SC3=CN=C2)C(=O)N
In short: as §1

[10] = compound: CC1=NC(=CC=C1)C2=C(N=C(N2)C(C)(C)C)C3=CC4=NC=CN=C4C=C3
In short: as §1

Nexturastat A = compound: CCCCN(Cc1ccc(C(=O)NO)cc1)C(=O)Nc1ccccc1 [Nexturastat A]
In short: as §1

vemurafenib = compound: CCCS(=O)(=O)Nc1ccc(F)c(C(=O)c2c[nH]c3ncc(-c4ccc(Cl)cc4)cc23)c1F [vemurafenib]
In short: as §1

[11] = compound: CCCS(=O)(=O)Nc1ccc(F)c(C(=O)c2c[nH]c3ncc(Cl)cc23)c1F
In short: as §1

[12] = compound: CCCc1cc(C)[nH]c(=O)c1CNC(=O)c1cc(-c2ccnc(N3CCN(C)CC3)c2)cc2c1cnn2C(C)C
In short: as §1

givinostat = compound: CCN(CC)Cc1ccc2cc(COC(=O)Nc3ccc(C(=O)NO)cc3)ccc2c1 [givinostat]
In short: as §1

barasertib = compound: CCN(CCCOc1ccc2c(Nc3cc(CC(=O)Nc4cccc(F)c4)[nH]n3)ncnc2c1)CCOP(=O)(O)O [barasertib]
In short: as §1

Measured: log2 fold change

OTUB1 (UniProt Q96FW1)
inactive: IRAK-1-4 Inhibitor I 0.009 | ibrutinib -0.011 | [1] -0.024 | ralimetinib 0.018 | [2] -0.07 | [3] -0.051 | [4] -0.04 | pinometostat -0.016 | [5] -0.007 | [6] -0.004 | [7] -0.018 | [8] -0.016 | [9] 0.03 | [10] 0.049 | Nexturastat A -0.089 | vemurafenib 0.031 | [11] 0.051 | [12] -0.028 | givinostat 0.019 | barasertib -0.017

NUP50 (UniProt Q9UKX7)
inactive: IRAK-1-4 Inhibitor I 0.048 | ibrutinib 0.029 | [1] -0.005 | ralimetinib -0.019 | [2] 0.004 | [3] 0.07 | [4] 0.059 | pinometostat -0.025 | [5] 0.023 | [6] -0.073 | [7] -0.001 | [8] -0.005 | [9] -0.01 | [10] 0.009 | Nexturastat A -0.057 | vemurafenib -0.003 | [11] -0.023 | [12] -0.103 | givinostat 0.003 | barasertib -0.019

NUSAP1 (UniProt Q9BXS6)
inactive: IRAK-1-4 Inhibitor I -0.124 | ibrutinib -0.017 | [1] 0.025 | ralimetinib 0.193 | [2] 0.06 | [3] 0.035 | [4] 0.206 | pinometostat 0.223 | [5] -0.017 | [6] -0.118 | [7] 0.012 | [8] 0.015 | [9] -0.062 | [10] -0.113 | Nexturastat A 0.097 | vemurafenib -0.031 | [11] -0.023 | [12] -0.273 | givinostat 0.01 | barasertib -0.044

NUP54 (UniProt Q7Z3B4)
inactive: IRAK-1-4 Inhibitor I 0 | ibrutinib -0.095 | [1] -0.064 | ralimetinib -0.01 | [2] -0.094 | [3] -0.122 | [4] 0.006 | pinometostat -0.04 | [5] -0.017 | [6] 0.08 | [7] -0.032 | [8] 0.044 | [9] 0.028 | [10] 0.104 | Nexturastat A 0 | vemurafenib 0.024 | [11] 0.061 | [12] 0.024 | givinostat 0.047 | barasertib 0.072

NSUN4 (UniProt Q96CB9)
inactive: IRAK-1-4 Inhibitor I -0.07 | ibrutinib 0.039 | [1] -0.012 | ralimetinib 0.088 | [2] -0.041 | [3] -0.029 | [4] 0.023 | pinometostat 0.024 | [5] 0.15 | [6] -0.012 | [7] 0.063 | [8] -0.008 | [9] -0.086 | [10] -0.099 | Nexturastat A 0.095 | vemurafenib 0.047 | [11] 0.04 | [12] 0.001 | givinostat -0.18 | barasertib -0.038

NUB1 (UniProt Q9Y5A7)
inactive: IRAK-1-4 Inhibitor I -0.039 | ibrutinib -0.012 | [1] -0.123 | ralimetinib 0.042 | [2] -0.072 | [3] -0.28 | [4] 0.167 | pinometostat 0.192 | [5] -0.015 | [6] -0.169 | [7] 0 | [8] -0.035 | [9] 0.034 | [10] -0.057 | Nexturastat A 0.161 | vemurafenib 0.029 | [11] 0.038 | [12] 0.041 | givinostat 0.065 | barasertib 0.039

PABPC1 (UniProt P11940)
inactive: IRAK-1-4 Inhibitor I -0.057 | ibrutinib 0.055 | [1] 0 | ralimetinib 0.036 | [2] 0.06 | [3] 0.015 | [4] 0.015 | pinometostat 0.025 | [5] 0.021 | [6] -0.161 | [7] 0.043 | [8] 0.048 | [9] -0.053 | [10] 0.046 | Nexturastat A 0.08 | vemurafenib -0.027 | [11] -0.031 | [12] 0.026 | givinostat -0.045 | barasertib -0.051

NT5C3A (UniProt Q9H0P0)
inactive: IRAK-1-4 Inhibitor I -0.07 | ibrutinib -0.03 | [1] -0.028 | ralimetinib 0.025 | [2] 0.025 | [3] -0.244 | [4] 0.021 | pinometostat 0.169 | [5] -0.041 | [6] -0.014 | [7] 0.019 | [8] -0.047 | [9] 0.023 | [10] -0.073 | Nexturastat A 0.183 | vemurafenib 0.029 | [11] 0.069 | [12] 0.058 | givinostat 0.102 | barasertib 0.085

ORC4 (UniProt O43929)
inactive: IRAK-1-4 Inhibitor I -0.097 | ibrutinib -0.072 | [1] -0.069 | ralimetinib 0.013 | [2] -0.139 | [3] -0.201 | [4] 0.077 | pinometostat -0.011 | [5] -0.021 | [6] 0.072 | [7] 0.02 | [8] 0.004 | [9] 0.009 | [10] 0.04 | Nexturastat A -0.031 | vemurafenib 0.087 | [11] 0.053 | [12] -0.06 | givinostat 0.099 | barasertib 0.054

OPLAH (UniProt O14841)
inactive: IRAK-1-4 Inhibitor I 0.044 | ibrutinib 0.026 | [1] -0.018 | ralimetinib -0.019 | [2] -0.028 | [3] 0.026 | [4] 0.001 | pinometostat 0.006 | [5] -0.011 | [6] 0.033 | [7] -0.02 | [8] 0.008 | [9] -0.004 | [10] -0.009 | Nexturastat A -0.027 | vemurafenib -0.012 | [11] -0.016 | [12] 0 | givinostat -0.056 | barasertib 0.023

OSGEP (UniProt Q9NPF4)
inactive: IRAK-1-4 Inhibitor I -0.001 | ibrutinib 0.013 | [1] -0.048 | ralimetinib -0.03 | [2] 0 | [3] 0.02 | [4] -0.039 | pinometostat -0.056 | [5] 0.021 | [6] -0.011 | [7] -0.044 | [8] 0.013 | [9] 0 | [10] 0.069 | Nexturastat A -0.175 | vemurafenib -0.01 | [11] 0.003 | [12] -0.002 | givinostat 0.001 | barasertib 0.009

Looked up one by one from above, 2 records:
NUSAP1 (UniProt Q9BXS6)
inactive: IRAK-1-4 Inhibitor I -0.124 | ibrutinib -0.017 | [1] 0.025 | ralimetinib 0.193 | [2] 0.06 | [3] 0.035 | [4] 0.206 | pinometostat 0.223 | [5] -0.017 | [6] -0.118 | [7] 0.012 | [8] 0.015 | [9] -0.062 | [10] -0.113 | Nexturastat A 0.097 | vemurafenib -0.031 | [11] -0.023 | [12] -0.273 | givinostat 0.01 | barasertib -0.044

OTUB1 (UniProt Q96FW1)
inactive: IRAK-1-4 Inhibitor I 0.009 | ibrutinib -0.011 | [1] -0.024 | ralimetinib 0.018 | [2] -0.07 | [3] -0.051 | [4] -0.04 | pinometostat -0.016 | [5] -0.007 | [6] -0.004 | [7] -0.018 | [8] -0.016 | [9] 0.03 | [10] 0.049 | Nexturastat A -0.089 | vemurafenib 0.031 | [11] 0.051 | [12] -0.028 | givinostat 0.019 | barasertib -0.017

Next part

OTUD5 isoform 5 (UniProt Q96G74)
inactive: IRAK-1-4 Inhibitor I 0.054 | ibrutinib 0 | [1] -0.137 | ralimetinib 0.004 | [2] 0.011 | [3] 0.014 | [4] 0 | pinometostat 0.031 | [5] 0.018 | [6] -0.063 | [7] -0.076 | [8] -0.051 | [9] 0.043 | [10] -0.022 | Nexturastat A 0.026 | vemurafenib 0.026 | [11] 0.052 | [12] -0.062 | givinostat 0.052 | barasertib 0.038

OIP5 (UniProt O43482)
inactive: IRAK-1-4 Inhibitor I 0.007 | ibrutinib 0.017 | [1] -0.104 | ralimetinib -0.098 | [2] 0.101 | [3] 0.024 | [4] 0.109 | pinometostat -0.044 | [5] 0.024 | [6] 0.006 | [7] -0.016 | [8] -0.008 | [9] 0.013 | [10] 0.087 | Nexturastat A 0.041 | vemurafenib -0.05 | [11] 0.029 | [12] -0.01 | givinostat -0.035 | barasertib -0.03

OGN (UniProt P20774)
inactive: IRAK-1-4 Inhibitor I -0.007 | ibrutinib 0.225 | [1] 0.014 | ralimetinib -0.13 | [2] 0.26 | [3] 0 | [4] 0.146 | pinometostat -0.031 | [5] -0.133 | [6] 0.019 | [7] 0.028 | [8] -0.031 | [9] 0.043 | [10] 0.037 | Nexturastat A -0.109 | vemurafenib 0.145 | [11] -0.027 | [12] 0.032 | givinostat -0.109 | barasertib 0.06

NTPCR (UniProt Q9BSD7)
inactive: IRAK-1-4 Inhibitor I 0.022 | ibrutinib 0.004 | [1] -0.016 | ralimetinib -0.033 | [2] -0.074 | [3] -0.049 | [4] -0.005 | pinometostat -0.029 | [5] 0.013 | [6] 0.028 | [7] 0.021 | [8] -0.003 | [9] 0.043 | [10] 0.096 | Nexturastat A -0.11 | vemurafenib 0.045 | [11] 0.023 | [12] -0.037 | givinostat 0.002 | barasertib -0.009
